Measurements reported in PubChem BioAssay AID504793 (Drosophila RNAi Screening Center, 2011).
Purpose: 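Knock-downs allowing continued mitosis even though DNA is damaged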 (primary screen). Cells: Drosophila S2R+ cells. Reagents: long dsRNA against Drosophila genes, about 0.25 µg dsRNA per well. Time to read-out: 4 days of dsRNA, then 4 hours of drug before read-out. Conditions: doxorubicin 0.5 µM for 4 hours to cause double-strand breaks, in cells also given a low, harmless dose of dsRNA against nbs to sensitise the assay. Measured: 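Mitotic index as the number of phospho-histone H3-positive cells in each well following doxorubicin, given as raw counts without normalisation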. Reading the numbers: mitotic cells: higher = more cells in mitosis, weaker G2 arrest. Rule for the call: 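a call needs confirmation in secondary tests, with other dsRNAs and a check of mitotic timing without damage, not just a high primary count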. Calls: active = confirmed in follow-up tests; inactive = not confirmed.
The deposit covers about 23,000 reagents; this is an unselected part of those that have a named target and a result. In the full data, 62 (0.27%) got an active call. 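Calls come from follow-up tests whose scores are not deposited, so confirmed genes may have low counts here; counts are not normalised per plate.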 The raw values are shown without normalisation. Reagents against one gene are numbered here. A plus sign joins genes that one reagent is predicted to hit. No sequences are given here.

Against Flad1, the values are mitotic cells, replicate 1 = 9; inactive.
Against Irk2, the values are mitotic cells, replicate 1 = 4; inactive.
After knock-down of Chpf #1 the results were mitotic cells, replicate 1 = 10; inactive.
For Chpf #2 the deposit lists mitotic cells, replicate 1 = 2; inactive.
For P58IPK #1, the values are mitotic cells, replicate 1 = 2; inactive.
For P58IPK #2, the entry reads mitotic cells, replicate 1 = 2; inactive.
CG15212 scored mitotic cells, replicate 1 = 6; inactive.
CG10339 gave mitotic cells, replicate 1 = 5; inactive.
Silencing of CG3257 #1 came out at: mitotic cells, replicate 1 = 7; inactive.
Against CG3257 #2, the values are mitotic cells, replicate 1 = 8; inactive.
CG8468 #1 scored mitotic cells, replicate 1 = 10; inactive.
Against CG8468 #2, the entry reads mitotic cells, replicate 1 = 5; inactive.
With knock-down of cry, the record shows mitotic cells, replicate 1 = 5; inactive.
After knock-down of CG7367 #1 the results were mitotic cells, replicate 1 = 3; inactive.
For CG7367 #2, the values are mitotic cells, replicate 1 = 4; inactive.
Knock-down of Taf7 #1 resulted in: mitotic cells, replicate 1 = 4; inactive.
For Taf7 #2, the entry reads mitotic cells, replicate 1 = 7; inactive.
CG2812 #1 showed mitotic cells, replicate 1 = 6; inactive.
Depletion of CG2812 #2 resulted in: mitotic cells, replicate 1 = 3; inactive.
Against Vha68-2 #1, the entry reads mitotic cells, replicate 1 = 4; inactive.
With knock-down of Vha68-2 #2 the results were mitotic cells, replicate 1 = 7; inactive.
After knock-down of CG3014, the record shows inactive.
Silencing of mRpS5 gave: mitotic cells, replicate 1 = 13; inactive.
With knock-down of CG33937 (retired record) the results were mitotic cells, replicate 1 = 1; inactive.
Against CG6125 the deposit lists mitotic cells, replicate 1 = 3; inactive.
Silencing of BomS5 came out at: mitotic cells, replicate 1 = 12; inactive.
After knock-down of ND-B22 #1, the record shows mitotic cells, replicate 1 = 8; inactive.
Against ND-B22 #2 the deposit lists mitotic cells, replicate 1 = 10; inactive.
Silencing of CG7488 resulted in: mitotic cells, replicate 1 = 7; inactive.
CG11630 gave mitotic cells, replicate 1 = 10; inactive.
After knock-down of CG14907 + Mettl4 #1, the record shows mitotic cells, replicate 1 = 4; inactive.
CG14907 + Mettl4 #2 gave mitotic cells, replicate 1 = 9; inactive.
rst #1 showed mitotic cells, replicate 1 = 12; inactive.
rst #2 scored mitotic cells, replicate 1 = 16; inactive.
With knock-down of rst #3, the record shows mitotic cells, replicate 1 = 10; inactive.
